This passage reports binding results from article PMC7530387.

Sequences of proteins named here, by UniProt entry; tags and fusion partners are left off. A change or cut given only in a name is not applied to a line headed by its entry.
UniProt P35232: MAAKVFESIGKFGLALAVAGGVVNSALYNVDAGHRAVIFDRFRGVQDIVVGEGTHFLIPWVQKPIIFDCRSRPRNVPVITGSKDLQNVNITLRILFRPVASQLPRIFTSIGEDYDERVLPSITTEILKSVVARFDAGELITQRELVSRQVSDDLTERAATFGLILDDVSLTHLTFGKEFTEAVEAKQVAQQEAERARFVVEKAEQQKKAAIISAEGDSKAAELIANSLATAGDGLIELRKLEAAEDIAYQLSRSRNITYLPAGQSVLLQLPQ
UniProt P54198: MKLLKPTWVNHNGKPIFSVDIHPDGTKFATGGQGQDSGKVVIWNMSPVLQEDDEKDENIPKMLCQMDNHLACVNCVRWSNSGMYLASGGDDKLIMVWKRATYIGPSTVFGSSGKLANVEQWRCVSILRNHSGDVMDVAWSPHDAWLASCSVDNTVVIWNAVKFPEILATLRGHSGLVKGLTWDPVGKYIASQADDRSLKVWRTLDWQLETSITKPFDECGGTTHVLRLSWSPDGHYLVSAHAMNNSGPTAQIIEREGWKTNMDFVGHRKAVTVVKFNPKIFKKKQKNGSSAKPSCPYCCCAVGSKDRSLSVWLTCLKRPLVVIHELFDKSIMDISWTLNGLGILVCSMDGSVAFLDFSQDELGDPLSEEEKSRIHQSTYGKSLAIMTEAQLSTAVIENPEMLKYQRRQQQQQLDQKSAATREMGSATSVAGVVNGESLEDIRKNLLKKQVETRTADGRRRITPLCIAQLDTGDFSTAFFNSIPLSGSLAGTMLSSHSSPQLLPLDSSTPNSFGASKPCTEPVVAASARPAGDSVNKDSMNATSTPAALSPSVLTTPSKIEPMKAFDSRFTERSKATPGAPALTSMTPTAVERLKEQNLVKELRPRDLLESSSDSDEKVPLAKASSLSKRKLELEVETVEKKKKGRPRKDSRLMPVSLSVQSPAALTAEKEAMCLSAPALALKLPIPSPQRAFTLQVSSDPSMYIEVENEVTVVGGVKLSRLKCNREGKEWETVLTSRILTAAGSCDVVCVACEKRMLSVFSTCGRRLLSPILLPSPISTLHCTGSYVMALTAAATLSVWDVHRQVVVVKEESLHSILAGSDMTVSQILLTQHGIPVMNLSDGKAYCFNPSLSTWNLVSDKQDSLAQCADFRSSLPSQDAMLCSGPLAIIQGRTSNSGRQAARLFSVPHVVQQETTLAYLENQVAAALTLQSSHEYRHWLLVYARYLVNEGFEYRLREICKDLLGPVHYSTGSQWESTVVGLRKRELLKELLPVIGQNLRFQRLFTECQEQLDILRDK

The target in this experiment is PHB domain-delete-linker (PHB-D-linker) (UniProt P35232). The experiment can be described thus: co-IP; Flag-tagged PHB or PHB fragments and HA-HIRA exogenously expressed in HEK 293T cells; IP with M2 beads, western blot; Co-IP buffer 50 mM Tris pH 7.4, 100 mM NaCl, 5 mM EDTA, 0.1% NP40. (In general: In western blotting, separated proteins are transferred to a membrane and probed.)

Results are given in words; binding and its absence hold for the method and conditions named. Binding seen in cells or lysates may run through a third protein.

For the substance “HA-tagged HIRA (histone regulator A) (from UniProt P54198 1-1017)”, the binding result is listed as “no binding”.
